# The full ranking holds about 33,000 sequences; the median of “E-score (-0.5 to 0.5)” is about -0.0014, and the highest 2% start at about 0.25. This is one part of the list.
# Target: T1, Cad1 (UniProt P24813)
# T1 sequence: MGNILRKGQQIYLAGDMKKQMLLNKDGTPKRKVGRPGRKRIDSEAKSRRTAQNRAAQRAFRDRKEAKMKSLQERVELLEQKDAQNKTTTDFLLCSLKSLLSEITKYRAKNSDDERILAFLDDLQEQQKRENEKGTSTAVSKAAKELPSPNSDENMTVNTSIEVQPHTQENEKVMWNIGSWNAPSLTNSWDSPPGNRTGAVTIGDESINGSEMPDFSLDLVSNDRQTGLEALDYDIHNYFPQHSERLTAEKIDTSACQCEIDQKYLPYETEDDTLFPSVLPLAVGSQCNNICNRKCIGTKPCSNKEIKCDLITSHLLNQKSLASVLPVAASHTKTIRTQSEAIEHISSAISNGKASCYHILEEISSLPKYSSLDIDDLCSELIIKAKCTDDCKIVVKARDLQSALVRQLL
# Experiment: PBM E-score (8-mer binding enrichment) (E-score (-0.5 to 0.5)); higher = stronger / more preferred TF binding
# Conditions: protein concentration: 100 nM; construct: GST-full length
# Outline: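 GST-tagged yeast TFs (full-length or DNA-binding domain) were made by PURExpress in vitro transcription/translation and applied at about 100-200 nM to universal all-10-mer Agilent arrays. The arrays were made double-stranded by primer extension, on fresh or once-stripped slides. Bound protein was detected with fluorescent anti-GST, and scans were normalised with masliner. Each ungapped eight-base word, pooled with its reverse complement, received an E-score (modified Wilcoxon-Mann-Whitney statistic) from the Universal PBM Analysis Suite.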
row,Sequence,PBM E-score
1,GATTGAGC,0.0444
2,CAGTAGCA,-0.0805
3,AATCAGGC,0.162
4,GTTAAAGA,-0.0721
5,AGCCCGTG,-0.246
6,CACGATGA,0.105
7,AGTATGGA,0.0255
8,ACGTACGA,-0.163
9,CAGCCGTA,-0.0902
10,ATGGCGAG,-0.0096
11,ATGCTTTG,0.0882
12,AGGACCCT,-0.181
13,CGTAAAAA,0.077
14,AGACACAA,0.0583
15,GTGAATAA,0.132
16,CCTCTACC,-0.136
17,ACCTTTCT,0.0143
18,CTTGTGCC,-0.161
19,ATAAATGC,-0.0377
20,ATAATTAT,0.377
21,ATTGTATC,0.0771
22,ATCAACCG,0.119
23,CCCCAGGC,-0.346
24,ACAGAGGG,-0.202
25,ATTGGGAC,0.00101

# A stretch from the list above:
row,Sequence,PBM E-score
9,CAGCCGTA,-0.0902
10,ATGGCGAG,-0.0096

# (continued)

row,Sequence,PBM E-score
1,ACACTGCC,0.138
2,CTCACGGA,-0.00122
3,CTCTCGTC,-0.133
4,CGCACATC,-0.0936
5,GAAGTGCC,0.00325
6,AATGGCCG,-0.0855
7,ATATCGTG,0.164
8,AAGGAACA,0.0112
9,GTCATCCA,0.0478
10,ATTCGGCC,-0.0167
11,GGGATTAC,0.0157
12,CTCAGAGA,0.027
13,TGGTTAAA,0.113
14,ACTTTCCA,0.0149
15,CATTTAGA,-0.0139
16,TATGCATA,-0.0368
17,AACATTGC,-0.0995
18,CCTCCCCA,-0.0358
19,AGTAACCG,0.157
20,CGTTGGAA,-0.00279
21,CAATGAAA,0.0476
22,AACTCAGC,-0.0136
23,CGTAGGGA,-0.227
24,ACGGACAG,0.0805
25,ACCATTCC,0.134

row,Sequence,PBM E-score
1,AACGTACC,-0.116
2,AGCAAGGG,0.0404
3,GAGCCGGA,-0.114
4,AAAGAACG,0.117
5,CTTTGTAA,0.333
6,CATAGCAG,-0.18
7,GGTCGACA,0.0882
8,AGATATAG,0.209
9,AGGTCTAG,-0.254
10,ACGCGAGT,0.148
11,TGTCTGAA,0.0398
12,GATACCAC,-0.00843
13,ACGAGCTC,-0.0475
14,CACAAGAA,0.165
15,ATAGTGTA,0.0723
16,GGGATACC,-0.297
17,AAGCAAAC,0.135
18,AGGATGGG,-0.107
19,AAGCTTCT,-0.0508
20,AGTTTTCA,0.081
21,AAATCGTG,0.263
22,CTGACCTC,-0.0374
23,AGTAGTTG,0.129
24,TACCGCGA,0.172
25,GTGAAAGA,0.0393

row,Sequence,PBM E-score
1,CTTGTATC,0.00667
2,GCCGGACC,-0.145
3,ATCAGAAG,-0.0366
4,AGGCAGCG,-0.0676
5,CACCTCAC,-0.0294
6,GTAGGGCA,0.0201
7,ATCCCTTG,-0.131
8,CAAGGAAG,-0.0537
9,GAGATACC,0.0744
10,GATGTCCA,0.0451
11,TGAGTGAA,0.0265
12,AGGCGTTG,-0.0072
13,ACACCTCC,-0.0181
14,GTGGATCA,-0.047
15,ATACAATA,0.16
16,ACCCTCGC,-0.0891
17,CATGAGAG,0.0887
18,GCGGATGA,0.0552
19,ACCAATCT,0.105
20,CTGATGAC,0.123
21,CAGATTCC,-0.0427
22,CCGTTAGC,0.0174
23,CGCTAATC,0.113
24,AACCTCCC,-0.194
25,CGGTGATA,0.125

row,Sequence,PBM E-score
1,GGAATTTA,0.167
2,AAGCAACT,0.136
3,CTATCGCC,-0.128
4,AAAAAACG,0.241
5,CGCTTCAG,-0.0196
6,CGAGGTAG,-0.125
7,AACCTGAG,-0.261
8,CTCAACGC,-0.0802
9,AAATGACG,0.0367
10,GCACCTCA,0.0626
11,CATCTTAA,-0.0291
12,AAGGGAGG,-0.154
13,AAGGCGGA,-0.0482
14,CGTCGACG,0.103
15,GTAGTTGA,0.0726
16,ACAACCCA,0.0591
17,AGTGCATC,-0.0329
18,ATGATGAG,0.0176
19,CAGCACGC,0.0316
20,CGCACCCA,-0.105
21,GTCTACTA,-0.0066
22,ACAACGGC,0.0114
23,CCAGGATA,0.0619
24,CATGCGGA,-0.13
25,ACACACAG,0.066

# Retrieved one by one from the entries so far, 4 records:
row,Sequence,PBM E-score
2,AAGCAACT,0.136
9,AAATGACG,0.0367
5,CGCTTCAG,-0.0196
6,CGAGGTAG,-0.125

# (cont.)

row,Sequence,PBM E-score
1,AGTGCACC,0.148
2,ACGTTATA,0.216
3,ACGGCGCA,0.0369
4,CGAAAGAC,0.00341
5,GGTGTAAC,0.0874
6,ATCCCACA,-0.136
7,ATTCAGCC,-0.121
8,ACGGGGTC,-0.243
9,CTTTTACA,0.159
10,CATTAGTC,0.217
11,ACCGTTGG,-0.166
12,ACATGAGG,-0.229
13,GAATATGA,0.00944
14,AGGGTCTA,-0.0909
15,GCAGGCCA,0.125
16,ATGCACGG,-0.0947
17,CCCACGGC,-0.117
18,CCCAAACG,-0.182
19,GAAAGAGC,-0.0569
20,GGCGCTCA,0.149
21,CTAACAGA,0.129
22,CACCCGAG,0.00242
23,ACTTGGCT,-0.0387
24,AGCTATTC,-0.215
25,ACAACAAT,0.0253

# 4 entries from above, with bars between the fields:
row | Sequence | PBM E-score
4 | CGCACATC | -0.0936
14 | ACTTTCCA | 0.0149
7 | ATCCCTTG | -0.131
12 | AGGCGTTG | -0.0072

# Remaining list, next part.

row,Sequence,PBM E-score
1,ATGCAGTC,0.0484
2,GATCTCCC,-0.121
3,CCCAAGAG,-0.132
4,AGGGCACC,-0.257
5,AGAAGCCG,0.0307
6,AGCTCCTG,-0.254
7,AATAAAGG,-0.164
8,TGAGTTAA,-0.0473
9,GGTGAAAA,0.0946
10,CGCAGAGA,0.0335
11,AATAAATA,0.313
12,GTGGTGTA,-0.0273
13,AGCGACTC,-0.00582
14,GCTAGTCA,-0.0828
15,CAAAATAG,-0.0227
16,AGCATGGA,-0.216
17,AGCGACAG,0.0726
18,TGAATACA,0.0483
19,CATCAAGA,0.0115
20,AACGTAAC,-0.00693
21,AAAAGTCT,-0.0292
22,CAGGGCAA,0.11
23,AGTCAACA,0.136
24,AAGTCGTA,-0.0848
25,ATATATCG,0.227

row,Sequence,PBM E-score
1,GGGGGCAA,-0.332
2,ACTCCCTG,-0.0969
3,CAGACCTC,0.0236
4,CCGAGTAC,-0.0521
5,CCTATAAC,-0.06
6,TACGGCGA,0.0897
7,GTACAATA,0.148
8,GGCGGCGA,-0.0215
9,AGAGCATC,-0.116
10,TAAGGGAA,-0.058
11,CATCCGGC,-0.0303
12,TTAAAGAA,0.0615
13,ATTAGATG,0.263
14,CATTCAAC,-0.00191
15,CAAATAAG,0.0237
16,AGTAACTA,0.11
17,CGTTATAC,-0.0845
18,CCTCGGCC,0.0888
19,ACACCCAC,0.051
20,CAGTAATG,0.0464
21,CTTAGTCC,-0.0572
22,TCACTAGA,0.088
23,TACCGCTA,-0.0629
24,TAGCCGAA,-0.0837
25,CGTGTGGA,-0.0339

row,Sequence,PBM E-score
1,AGACACTC,0.013
2,AGAACCGC,0.162
3,ACTTCAAC,0.0624
4,AAAAACTA,0.0962
5,GAGACACA,0.119
6,ATACTCTA,-0.0262
7,GTCGCCGA,-0.00147
8,GCAGTAAC,-0.113
9,AACCCGTC,-0.171
10,AAAGATAC,-0.051
11,AGAGGGGC,-0.238
12,AATCACCC,0.0133
13,GCTGTAAC,0.0215
14,AAGGCAAC,0.0609
15,CAGATTTA,0.109
16,ACGGGACA,-0.184
17,AAGGTCGC,-0.0798
18,ACAGATCT,0.182
19,CTATTCAG,0.0439

# From the supplement of paper PMC3334620
